PubChem BioAssay AID1259295, Sanger Institute | 2017
The deposit covers 160 reagents; this is a part drawn at random. 40 of all reagents (25%) count as active. 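How the synergy score is calculated is not defined; single-siRNA calls need support from other siRNAs and cell lines.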 A number with no mark means an inactive call. Reagents against one gene are numbered here. Further read-outs or replicates are left out here. The record does not give: the amount of reagent, the time to read-out.

- Purpose: 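Identify siRNA and drug combinations whose joint killing beats the expected effect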 (secondary deconvolution screen, four single siRNAs per gene)
- System: human COLO678 colorectal cancer cells
- Knock-down reagent: single siRNA against human genes
- Challenge: anchor drug BYL719 at 1 µM, cetuximab at 5 µg/ml or trametinib at 10 nM, or DMSO vehicle alone
- Measured: 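Averaged cell survival relative to control pool 2 with DMSO, plus synergy scores weighing knockdown combined with each of three drugs against either separately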
- Reading the numbers: synergy score with BYL719: higher = stronger combined killing with BYL719; synergy score with cetuximab: higher = stronger combined killing with cetuximab; synergy score with trametinib: higher = stronger combined killing with trametinib
- Hit rule: 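Hit: synergy score over 0.10 with BYL719, cetuximab or trametinib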

Gene	reagent	synergy score with BYL719	synergy score with cetuximab	synergy score with trametinib
PINK1 (PTEN induced kinase 1)	1	-0.221	-0.127	0.0365
PINK1 (PTEN induced kinase 1)	2	-0.111	-0.0792	-0.0612
PINK1 (PTEN induced kinase 1)	3	-0.0843	0.0522	0.0519
PINK1 (PTEN induced kinase 1)	4	-0.16	-0.0565	0.0532
BRAF (B-Raf proto-oncogene, serine/threonine kinase)	1	0.0911	-0.0567	-0.0255
BRAF (B-Raf proto-oncogene, serine/threonine kinase)	2	0.0747 (active)	0.11	0.0303
BRAF (B-Raf proto-oncogene, serine/threonine kinase)	3	0.0168 (active)	-0.118	0.121
BRAF (B-Raf proto-oncogene, serine/threonine kinase)	4	-0.0438	-0.0422	0.0968
GUCY2D (guanylate cyclase 2D, retinal)	1	-0.124	-0.114	0.0112
GUCY2D (guanylate cyclase 2D, retinal)	2	-0.0841	-0.0594	0.0516
GUCY2D (guanylate cyclase 2D, retinal)	3	-0.0752	-0.0678	-0.0733
GUCY2D (guanylate cyclase 2D, retinal)	4	-0.0877	-0.119	-0.0113
CDKN2D (cyclin dependent kinase inhibitor 2D)	1	0.0212	-0.00271	0.053
CDKN2D (cyclin dependent kinase inhibitor 2D)	2	-0.0708	-0.136	0.0479
CDKN2D (cyclin dependent kinase inhibitor 2D)	3	-0.0515	0.035	0.0365
CDKN2D (cyclin dependent kinase inhibitor 2D)	4	-0.0113	0.0931	0.0646
PIK3CA	1	0.0081	-0.0478	-0.0121
PIK3CA	2	-0.0826	-0.0768	0.00428
PIK3CA	3	0.0941 (active)	-0.0344	0.14
PIK3CA	4	-0.0274	-0.0406	0.0513
NR2F2 (nuclear receptor subfamily 2 group F member 2)	1	-0.258	-0.0358	0.0268
NR2F2 (nuclear receptor subfamily 2 group F member 2)	2	-0.0423	-0.123	0.0212
NR2F2 (nuclear receptor subfamily 2 group F member 2)	3	-0.0753	-0.0716	0.0357
NR2F2 (nuclear receptor subfamily 2 group F member 2)	4	-0.258	-0.174	-0.00567
NLK (nemo like kinase)	1	0.00831 (active)	0.0239	0.101
NLK (nemo like kinase)	2	-0.0356 (active)	0.12	0.153
NLK (nemo like kinase)	3	-0.1	0.0335	0.0734
NLK (nemo like kinase)	4	-0.0982 (active)	0.0104	0.123
IRAK3 (interleukin 1 receptor associated kinase 3)	1	-0.231	-0.139	-0.173
IRAK3 (interleukin 1 receptor associated kinase 3)	2	-0.0223	0.0685	-0.0648
IRAK3 (interleukin 1 receptor associated kinase 3)	3	-0.238	-0.0189	-0.0833
IRAK3 (interleukin 1 receptor associated kinase 3)	4	-0.23	-0.141	-0.0447
PLK1 (polo like kinase 1)	1	0.172 (active)	0.173	0.114
PLK1 (polo like kinase 1)	2	0.078	0.0593	0.0661
PLK1 (polo like kinase 1)	3	-0.101	-0.114	0.00469
PLK1 (polo like kinase 1)	4	-0.228	-0.069	-0.0598
HUNK (hormonally up-regulated Neu-associated kinase)	1	-0.0492	0.0169	0.0283
HUNK (hormonally up-regulated Neu-associated kinase)	2	-0.0844	-0.0265	0.0203
HUNK (hormonally up-regulated Neu-associated kinase)	3	-0.186	-0.179	-0.0485
HUNK (hormonally up-regulated Neu-associated kinase)	4	-0.0257	0.00978	0.084
COASY (Coenzyme A synthase)	1	0.0795	0.0919	0.0168
COASY (Coenzyme A synthase)	2	0.153 (active)	0.107	0.172
COASY (Coenzyme A synthase)	3	0.0582	0.0402	-0.0466
COASY (Coenzyme A synthase)	4	0.086	0.0768	0.0708
EPHA6 (EPH receptor A6)	1	-0.0877	-0.0963	-0.0481
EPHA6 (EPH receptor A6)	2	-0.054	0.0322	0.0854
EPHA6 (EPH receptor A6)	3	0.0216	0.0967	0.0578
EPHA6 (EPH receptor A6)	4	-0.104	0.022	-0.0025
CHD4 (chromodomain helicase DNA binding protein 4)	1	-0.124	-0.048	-0.000795
CHD4 (chromodomain helicase DNA binding protein 4)	2	-0.0652	0.074	0.00388
CHD4 (chromodomain helicase DNA binding protein 4)	3	0.0125	0.00286	0.0736
CHD4 (chromodomain helicase DNA binding protein 4)	4	-0.0274	0.0681	0.0326
SYK (spleen associated tyrosine kinase)	1	-0.0647	0.00997	0.0461
SYK (spleen associated tyrosine kinase)	2	-0.168	0.0294	0.0592
SYK (spleen associated tyrosine kinase)	3	-0.0539	-0.0847	0.0775
SYK (spleen associated tyrosine kinase)	4	-0.086	0.0281	-0.0223
MAP3K8 (mitogen-activated protein kinase kinase kinase 8)	1	0.0449 (active)	-0.0314	0.162
MAP3K8 (mitogen-activated protein kinase kinase kinase 8)	2	0.121 (active)	0.0551	0.0649
MAP3K8 (mitogen-activated protein kinase kinase kinase 8)	3	-0.14	-0.128	0.0526
MAP3K8 (mitogen-activated protein kinase kinase kinase 8)	4	-0.0559	-0.0579	-0.0249

As entered above:
Under “synergy score with BYL719”, GUCY2D (guanylate cyclase 2D, retinal) #3 reads -0.0752
CDKN2D (cyclin dependent kinase inhibitor 2D) #2, synergy score with BYL719 → -0.0708
Entry of GUCY2D (guanylate cyclase 2D, retinal) #1 under “synergy score with cetuximab”: -0.114
For “synergy score with cetuximab”, PIK3CA #4 shows -0.0406
COASY (Coenzyme A synthase) #3, synergy score with BYL719 = 0.0582
For “synergy score with cetuximab”, PIK3CA #3 shows -0.0344 (active)
